# Measured values: the supplement of paper PMC10849652
# Chains of the proteins cited; added tags and fusions are not shown. Lines headed by an entry give the natural chain unless they say otherwise; changes in a name come on top.
# UniProt Q9NWS0, whole entry, looked up: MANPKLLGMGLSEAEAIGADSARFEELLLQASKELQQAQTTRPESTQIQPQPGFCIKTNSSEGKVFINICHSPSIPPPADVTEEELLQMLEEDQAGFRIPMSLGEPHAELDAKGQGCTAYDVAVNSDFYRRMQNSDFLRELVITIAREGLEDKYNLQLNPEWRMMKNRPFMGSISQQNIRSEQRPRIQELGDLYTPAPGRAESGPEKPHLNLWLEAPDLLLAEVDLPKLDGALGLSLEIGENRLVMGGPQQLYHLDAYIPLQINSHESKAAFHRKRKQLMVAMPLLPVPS
# PIGBOS1, A0A0B4J2F0, UniProt A0A0B4J2F0, whole entry, looked up: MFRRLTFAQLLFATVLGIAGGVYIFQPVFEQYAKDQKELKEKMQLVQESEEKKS
# UniProt Q9BUL5: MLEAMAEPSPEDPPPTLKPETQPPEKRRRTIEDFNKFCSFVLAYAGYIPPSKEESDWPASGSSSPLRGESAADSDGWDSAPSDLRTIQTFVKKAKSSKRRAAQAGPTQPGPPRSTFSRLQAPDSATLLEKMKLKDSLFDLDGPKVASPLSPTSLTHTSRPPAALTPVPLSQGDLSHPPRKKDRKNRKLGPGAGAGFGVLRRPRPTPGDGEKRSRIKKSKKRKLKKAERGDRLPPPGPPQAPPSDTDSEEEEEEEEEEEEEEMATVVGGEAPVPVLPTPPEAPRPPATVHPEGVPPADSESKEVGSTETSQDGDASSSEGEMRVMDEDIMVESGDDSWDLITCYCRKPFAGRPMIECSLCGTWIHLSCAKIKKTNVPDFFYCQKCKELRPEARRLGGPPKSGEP
# UniProt Q7RTV0, whole entry, looked up: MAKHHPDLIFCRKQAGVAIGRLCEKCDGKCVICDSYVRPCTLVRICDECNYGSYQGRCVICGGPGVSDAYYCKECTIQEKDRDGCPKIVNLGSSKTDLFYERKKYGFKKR
# UniProt Q9BSJ6: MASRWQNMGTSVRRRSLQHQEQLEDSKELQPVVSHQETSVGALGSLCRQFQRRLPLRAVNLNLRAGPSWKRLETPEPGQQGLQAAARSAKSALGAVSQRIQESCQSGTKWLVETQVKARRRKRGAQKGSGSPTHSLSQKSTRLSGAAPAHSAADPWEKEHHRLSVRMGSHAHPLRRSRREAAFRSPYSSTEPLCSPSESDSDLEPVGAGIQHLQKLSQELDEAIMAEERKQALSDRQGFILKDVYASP
# UniProt Q86UU1: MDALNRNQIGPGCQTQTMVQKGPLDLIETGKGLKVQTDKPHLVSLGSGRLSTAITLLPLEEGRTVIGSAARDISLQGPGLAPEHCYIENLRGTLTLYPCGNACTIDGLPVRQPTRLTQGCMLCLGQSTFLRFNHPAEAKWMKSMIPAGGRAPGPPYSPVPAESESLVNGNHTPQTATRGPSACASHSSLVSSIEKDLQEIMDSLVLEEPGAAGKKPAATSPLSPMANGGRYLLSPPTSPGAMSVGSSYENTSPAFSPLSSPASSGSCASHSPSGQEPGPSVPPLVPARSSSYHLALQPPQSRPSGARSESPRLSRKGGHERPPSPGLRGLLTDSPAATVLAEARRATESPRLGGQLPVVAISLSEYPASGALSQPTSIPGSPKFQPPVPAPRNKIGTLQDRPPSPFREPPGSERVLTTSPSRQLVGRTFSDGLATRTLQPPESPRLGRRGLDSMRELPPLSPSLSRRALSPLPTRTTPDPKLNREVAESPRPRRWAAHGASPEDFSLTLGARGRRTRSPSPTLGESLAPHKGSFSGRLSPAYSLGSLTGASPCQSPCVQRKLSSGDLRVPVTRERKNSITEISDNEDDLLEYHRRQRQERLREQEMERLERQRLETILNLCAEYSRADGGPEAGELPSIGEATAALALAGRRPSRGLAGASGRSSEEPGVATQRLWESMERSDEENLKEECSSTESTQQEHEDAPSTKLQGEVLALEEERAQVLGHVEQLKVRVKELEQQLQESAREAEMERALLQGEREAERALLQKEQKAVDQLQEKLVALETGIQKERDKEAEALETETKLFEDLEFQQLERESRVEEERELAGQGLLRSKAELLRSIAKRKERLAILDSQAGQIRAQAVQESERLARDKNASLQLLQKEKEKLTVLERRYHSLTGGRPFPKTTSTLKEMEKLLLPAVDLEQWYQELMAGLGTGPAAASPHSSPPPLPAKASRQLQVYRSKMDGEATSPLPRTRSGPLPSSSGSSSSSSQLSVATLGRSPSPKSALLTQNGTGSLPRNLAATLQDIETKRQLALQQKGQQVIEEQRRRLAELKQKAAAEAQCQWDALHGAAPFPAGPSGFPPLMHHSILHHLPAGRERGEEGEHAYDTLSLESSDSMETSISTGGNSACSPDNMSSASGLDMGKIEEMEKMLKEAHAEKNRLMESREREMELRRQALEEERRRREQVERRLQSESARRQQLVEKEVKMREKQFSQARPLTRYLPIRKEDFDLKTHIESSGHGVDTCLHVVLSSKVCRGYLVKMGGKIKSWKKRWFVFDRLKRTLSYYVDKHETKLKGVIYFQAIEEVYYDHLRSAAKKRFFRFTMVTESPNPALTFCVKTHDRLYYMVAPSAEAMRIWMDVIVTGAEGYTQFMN
# UniProt Q99623, whole entry, looked up: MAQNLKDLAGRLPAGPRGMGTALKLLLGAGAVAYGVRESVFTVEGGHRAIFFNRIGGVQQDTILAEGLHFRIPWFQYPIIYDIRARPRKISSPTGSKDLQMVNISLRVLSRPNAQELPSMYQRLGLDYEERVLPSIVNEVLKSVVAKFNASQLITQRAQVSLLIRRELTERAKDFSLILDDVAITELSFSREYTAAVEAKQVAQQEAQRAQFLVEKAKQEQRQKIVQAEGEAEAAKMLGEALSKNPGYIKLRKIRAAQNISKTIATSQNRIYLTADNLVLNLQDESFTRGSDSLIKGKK
# UniProt Q96BD5: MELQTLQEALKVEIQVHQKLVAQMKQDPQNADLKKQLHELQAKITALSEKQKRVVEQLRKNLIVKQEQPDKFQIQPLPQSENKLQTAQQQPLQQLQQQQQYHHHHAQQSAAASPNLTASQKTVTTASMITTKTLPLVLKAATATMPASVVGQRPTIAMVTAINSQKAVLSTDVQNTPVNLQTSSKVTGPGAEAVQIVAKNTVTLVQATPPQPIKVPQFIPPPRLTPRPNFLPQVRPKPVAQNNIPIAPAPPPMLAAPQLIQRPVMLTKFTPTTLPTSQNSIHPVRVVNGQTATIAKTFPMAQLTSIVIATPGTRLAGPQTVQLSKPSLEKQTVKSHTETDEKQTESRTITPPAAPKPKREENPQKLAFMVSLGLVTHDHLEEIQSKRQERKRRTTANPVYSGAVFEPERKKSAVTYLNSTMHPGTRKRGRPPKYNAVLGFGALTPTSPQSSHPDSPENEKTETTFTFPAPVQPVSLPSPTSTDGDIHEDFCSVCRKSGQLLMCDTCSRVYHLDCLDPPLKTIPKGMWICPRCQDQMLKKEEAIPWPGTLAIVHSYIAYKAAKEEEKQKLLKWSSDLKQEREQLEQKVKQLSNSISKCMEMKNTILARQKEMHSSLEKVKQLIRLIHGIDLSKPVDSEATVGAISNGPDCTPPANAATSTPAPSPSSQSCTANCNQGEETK
# UniProt Q5JRX3: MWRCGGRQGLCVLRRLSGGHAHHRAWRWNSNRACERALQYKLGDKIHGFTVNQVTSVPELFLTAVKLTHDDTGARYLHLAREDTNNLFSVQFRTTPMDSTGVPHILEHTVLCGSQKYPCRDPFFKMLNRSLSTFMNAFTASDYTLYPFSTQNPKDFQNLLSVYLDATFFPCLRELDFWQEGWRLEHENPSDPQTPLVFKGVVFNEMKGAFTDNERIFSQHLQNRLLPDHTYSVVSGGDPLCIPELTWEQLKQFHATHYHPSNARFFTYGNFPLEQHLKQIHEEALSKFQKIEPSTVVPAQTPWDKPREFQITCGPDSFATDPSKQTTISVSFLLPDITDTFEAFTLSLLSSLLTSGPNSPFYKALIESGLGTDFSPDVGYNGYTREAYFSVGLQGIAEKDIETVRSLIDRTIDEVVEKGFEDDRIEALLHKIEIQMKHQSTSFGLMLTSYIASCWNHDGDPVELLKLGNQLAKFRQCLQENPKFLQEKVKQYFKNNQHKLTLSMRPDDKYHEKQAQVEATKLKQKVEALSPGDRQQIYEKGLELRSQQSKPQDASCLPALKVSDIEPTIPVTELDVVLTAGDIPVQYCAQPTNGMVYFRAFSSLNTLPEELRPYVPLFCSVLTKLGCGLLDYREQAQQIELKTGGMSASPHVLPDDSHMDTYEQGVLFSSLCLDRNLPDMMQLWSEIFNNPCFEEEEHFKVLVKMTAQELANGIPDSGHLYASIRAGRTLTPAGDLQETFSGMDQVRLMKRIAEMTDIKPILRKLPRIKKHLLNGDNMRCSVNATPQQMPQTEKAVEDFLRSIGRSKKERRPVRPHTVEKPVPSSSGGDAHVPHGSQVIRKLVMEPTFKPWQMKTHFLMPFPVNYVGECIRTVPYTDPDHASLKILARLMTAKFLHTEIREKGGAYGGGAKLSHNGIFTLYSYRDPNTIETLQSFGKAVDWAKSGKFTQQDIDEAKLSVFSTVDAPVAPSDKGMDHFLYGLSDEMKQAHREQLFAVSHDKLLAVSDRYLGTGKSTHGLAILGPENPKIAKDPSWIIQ
# UniProt Q5H8A4: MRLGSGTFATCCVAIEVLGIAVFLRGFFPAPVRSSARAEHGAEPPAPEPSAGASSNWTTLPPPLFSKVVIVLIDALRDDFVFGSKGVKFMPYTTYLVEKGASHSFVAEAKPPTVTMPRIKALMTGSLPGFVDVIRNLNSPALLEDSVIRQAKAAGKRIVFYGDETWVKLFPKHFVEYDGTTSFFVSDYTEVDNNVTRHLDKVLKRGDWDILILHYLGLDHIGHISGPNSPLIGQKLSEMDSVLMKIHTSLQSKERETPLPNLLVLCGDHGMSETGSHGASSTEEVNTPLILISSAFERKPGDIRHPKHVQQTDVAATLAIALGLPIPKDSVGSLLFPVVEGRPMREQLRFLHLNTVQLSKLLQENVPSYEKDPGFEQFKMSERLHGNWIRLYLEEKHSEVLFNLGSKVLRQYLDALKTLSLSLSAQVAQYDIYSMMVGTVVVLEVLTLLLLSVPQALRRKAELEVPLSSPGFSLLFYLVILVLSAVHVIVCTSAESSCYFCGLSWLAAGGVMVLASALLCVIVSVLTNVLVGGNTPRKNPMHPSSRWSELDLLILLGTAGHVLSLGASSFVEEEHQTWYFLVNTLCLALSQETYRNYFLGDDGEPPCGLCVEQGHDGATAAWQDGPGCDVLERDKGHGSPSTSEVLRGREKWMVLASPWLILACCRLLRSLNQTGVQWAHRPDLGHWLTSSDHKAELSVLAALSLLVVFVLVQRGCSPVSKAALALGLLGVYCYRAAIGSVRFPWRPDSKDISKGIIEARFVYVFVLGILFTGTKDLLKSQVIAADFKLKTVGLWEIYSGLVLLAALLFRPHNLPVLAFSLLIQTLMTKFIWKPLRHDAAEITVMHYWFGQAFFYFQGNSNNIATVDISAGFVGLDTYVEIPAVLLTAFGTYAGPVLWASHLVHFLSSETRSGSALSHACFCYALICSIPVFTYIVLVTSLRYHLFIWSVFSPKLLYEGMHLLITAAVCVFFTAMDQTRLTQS
# UniProt P42336, whole entry, looked up: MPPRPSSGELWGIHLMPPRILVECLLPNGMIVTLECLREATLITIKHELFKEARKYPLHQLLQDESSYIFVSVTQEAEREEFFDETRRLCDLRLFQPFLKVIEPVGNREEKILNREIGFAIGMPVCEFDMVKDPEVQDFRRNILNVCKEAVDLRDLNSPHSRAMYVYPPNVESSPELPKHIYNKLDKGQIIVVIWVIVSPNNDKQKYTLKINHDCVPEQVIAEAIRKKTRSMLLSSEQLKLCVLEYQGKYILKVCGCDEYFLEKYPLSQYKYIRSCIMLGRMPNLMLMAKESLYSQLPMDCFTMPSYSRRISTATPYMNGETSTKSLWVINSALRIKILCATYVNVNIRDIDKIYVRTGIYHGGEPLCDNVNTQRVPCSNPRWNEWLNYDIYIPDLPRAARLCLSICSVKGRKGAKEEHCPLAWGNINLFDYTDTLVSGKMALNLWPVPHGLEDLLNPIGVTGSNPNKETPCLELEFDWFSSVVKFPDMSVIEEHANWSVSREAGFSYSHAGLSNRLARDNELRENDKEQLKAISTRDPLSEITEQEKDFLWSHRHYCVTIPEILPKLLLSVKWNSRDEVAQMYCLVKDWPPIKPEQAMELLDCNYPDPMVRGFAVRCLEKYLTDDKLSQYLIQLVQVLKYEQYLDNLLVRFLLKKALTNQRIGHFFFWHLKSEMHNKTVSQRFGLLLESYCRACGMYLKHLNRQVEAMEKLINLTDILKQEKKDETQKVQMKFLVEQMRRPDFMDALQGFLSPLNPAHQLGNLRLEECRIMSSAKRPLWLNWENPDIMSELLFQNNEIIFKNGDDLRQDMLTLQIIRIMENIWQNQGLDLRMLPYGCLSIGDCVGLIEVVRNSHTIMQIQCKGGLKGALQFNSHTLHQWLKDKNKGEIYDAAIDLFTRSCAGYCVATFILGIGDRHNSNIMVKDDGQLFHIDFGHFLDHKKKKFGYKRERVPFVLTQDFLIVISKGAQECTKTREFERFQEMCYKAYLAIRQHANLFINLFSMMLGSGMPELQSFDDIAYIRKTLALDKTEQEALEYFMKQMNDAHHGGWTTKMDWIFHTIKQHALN
# Some of the results follow.
# What was measured:
# Assay in all cases: log2 fold change, soluble protein after heating vs DMSO (PISA); higher = thermal stabilisation; K562 lysate, 10 uM; active = over 0.2 and 3.5 SD of the protein, either way, in both replicates (recomputed)
# alvocidib = compound: CN1CC[C@H](c2c(O)cc(O)c3c(=O)cc(-c4ccccc4Cl)oc23)[C@H](O)C1 [alvocidib]
# Outline: (§1)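 Quantification was by TMTpro 16plex LC-MS/MS with equalised channel sums, applied to the supernatant after 21,000xg for 90 min. Samples were crude K562 extract at 1 mg/mL protein in PBS pH 7.4 with 1 mM MgCl2, treated with 10 μM compound for 30 min, heated for 3 min across 48°C-58°C, pooled and brought to 0.5% NP-40 at 4°C. Values are log-two fold changes in thermal stability relative to solvent controls, from duplicates.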
# Tubastatin A = compound: CN1CCc2c(c3ccccc3n2Cc2ccc(C(=O)NO)cc2)C1 [Tubastatin A]
# Outline: as §1
# [1] = compound: CNC(=O)C1=CC=CC=C1NC2=NC(=NC=C2Cl)NC3=C(C=C(C=C3)N4CCOCC4)OC
# Outline: as §1
# defactinib = compound: CNC(=O)c1ccc(Nc2ncc(C(F)(F)F)c(NCc3nccnc3N(C)S(C)(=O)=O)n2)cc1 [defactinib]
# Outline: as §1
# [2] = compound: CNc1nc(-c2ccc3c(N)n[nH]c3c2)cc(N2C[C@@H](C(=O)NC3CCCCC3)CC[C@H]2C)n1
# Outline: as §1
# encorafenib = compound: COC(=O)N[C@@H](C)CNc1nccc(-c2cn(C(C)C)nc2-c2cc(Cl)cc(NS(C)(=O)=O)c2F)n1 [encorafenib]
# Outline: as §1
# [3] = compound: COC(=O)[C@H](CCSC)NC(=O)C1=C(C=C(C=C1)NC[C@H](CS)N)C2=CC=CC=C2
# Outline: as §1
# alisertib = compound: COc1cc(Nc2ncc3c(n2)-c2ccc(Cl)cc2C(c2c(F)cccc2OC)=NC3)ccc1C(=O)O [alisertib]
# Outline: as §1
# [4] = compound: COc1cc2nc(-c3cc(F)ccc3O)nc(N[C@@H]3CNC[C@H]3C(C)(C)O)c2cc1OC
# Outline: as §1
# gefitinib = compound: COc1cc2ncnc(Nc3ccc(F)c(Cl)c3)c2cc1OCCCN1CCOCC1 [gefitinib]
# Outline: as §1
Target,log2 fold change (alvocidib),log2 fold change (Tubastatin A),log2 fold change [1],log2 fold change (defactinib),log2 fold change [2],log2 fold change (encorafenib),log2 fold change [3],log2 fold change (alisertib),log2 fold change [4],log2 fold change (gefitinib)
PLBD1 (UniProt Q6P4A8),inactive: -0.026,inactive: -0.012,inactive: 0,inactive: 0.025,inactive: -0.013,inactive: 0.064,inactive: -0.058,inactive: 0.007,inactive: -0.019,inactive: 0.078
PGRMC2 isoform 2 (UniProt O15173),inactive: -0.02,inactive: 0.049,inactive: -0.016,inactive: 0.021,inactive: 0.029,inactive: -0.007,inactive: -0.229,inactive: 0.024,inactive: 0.02,inactive: 0
PIH1D1 (UniProt Q9NWS0),inactive: -0.013,inactive: -0.012,inactive: 0.025,inactive: 0.028,inactive: -0.021,inactive: 0.05,inactive: -0.065,inactive: -0.009,inactive: -0.011,inactive: -0.016
PIP4K2A (UniProt P48426),active: 0.279,inactive: -0.048,inactive: 0.006,inactive: 0.065,inactive: -0.035,inactive: 0.141,inactive: -0.071,inactive: 0.01,inactive: 0.005,inactive: 0.037
PIP4K2B (UniProt P78356),active: 0.223,inactive: 0.008,inactive: -0.014,inactive: 0.031,inactive: -0.065,inactive: 0.062,inactive: -0.093,inactive: -0.036,inactive: -0.028,inactive: 0.013
PHF3 (UniProt Q92576),inactive: -0.037,inactive: -0.03,inactive: 0.016,inactive: 0.024,inactive: 0.075,inactive: 0.04,inactive: 0,inactive: -0.013,inactive: -0.035,inactive: -0.021
"PIGBOS1, A0A0B4J2F0",inactive: 0.223,,,,,,,,,
PGPEP1 (UniProt Q9NXJ5),inactive: 0.05,inactive: -0.182,inactive: 0.012,inactive: -0.032,inactive: -0.055,inactive: 0.02,inactive: 0.057,inactive: -0.045,inactive: 0.01,inactive: -0.06
PIP4P2 (UniProt Q8N4L2),inactive: -0.03,inactive: 0.038,inactive: -0.021,inactive: -0.009,inactive: 0.062,inactive: 0,inactive: -0.12,inactive: 0.006,inactive: 0.052,inactive: 0.111
PHF23 (UniProt Q9BUL5),inactive: -0.018,inactive: -0.04,inactive: 0.036,inactive: 0.022,inactive: -0.005,inactive: -0.006,inactive: -0.099,inactive: 0.002,inactive: -0.005,inactive: 0.017
PIGK (UniProt Q92643),inactive: -0.017,inactive: 0.034,inactive: 0.025,inactive: 0.078,inactive: -0.04,inactive: -0.019,inactive: 0.032,inactive: 0.015,inactive: -0.091,inactive: 0.049
PHF6 (UniProt Q8IWS0),inactive: 0.02,inactive: -0.009,inactive: 0.039,inactive: -0.038,inactive: 0,inactive: -0.021,inactive: 0.041,inactive: 0.025,inactive: 0.007,inactive: -0.013
PHF5A (UniProt Q7RTV0),inactive: -0.024,inactive: 0.03,inactive: -0.006,inactive: 0.026,inactive: 0.04,inactive: 0.004,inactive: -0.126,inactive: 0.016,inactive: 0.023,inactive: -0.052
PLA2G4B isoform 6 (UniProt P0C869),inactive: -0.035,inactive: 0.054,inactive: -0.032,inactive: 0.024,inactive: 0.051,inactive: 0.09,inactive: 0.177,inactive: -0.009,inactive: 0.073,inactive: 0.115
PIMREG (UniProt Q9BSJ6),inactive: -0.205,inactive: -0.135,inactive: 0.057,,,,,,,
PHF10 (UniProt Q8WUB8),inactive: 0.002,inactive: -0.035,inactive: 0.053,inactive: -0.025,inactive: -0.048,inactive: 0.044,inactive: 0.068,inactive: 0.042,inactive: -0.006,inactive: -0.077

# Part of the list above, with tabs:
Target	log2 fold change (alvocidib)	log2 fold change (Tubastatin A)	log2 fold change [1]	log2 fold change (defactinib)	log2 fold change [2]	log2 fold change (encorafenib)	log2 fold change [3]	log2 fold change (alisertib)	log2 fold change [4]	log2 fold change (gefitinib)
PIGK (UniProt Q92643)	inactive: -0.017	inactive: 0.034	inactive: 0.025	inactive: 0.078	inactive: -0.04	inactive: -0.019	inactive: 0.032	inactive: 0.015	inactive: -0.091	inactive: 0.049
PHF6 (UniProt Q8IWS0)	inactive: 0.02	inactive: -0.009	inactive: 0.039	inactive: -0.038	inactive: 0	inactive: -0.021	inactive: 0.041	inactive: 0.025	inactive: 0.007	inactive: -0.013

# Next part

Target,log2 fold change (alvocidib),log2 fold change (Tubastatin A),log2 fold change [1],log2 fold change (defactinib),log2 fold change [2],log2 fold change (encorafenib),log2 fold change [3],log2 fold change (alisertib),log2 fold change [4],log2 fold change (gefitinib)
PGK1 (UniProt P00558),inactive: 0.017,inactive: 0.015,inactive: -0.016,inactive: -0.019,inactive: 0.027,inactive: -0.035,inactive: 0.02,inactive: 0.017,inactive: 0.09,inactive: -0.011
PIP4K2C (UniProt Q8TBX8),active: 0.47,inactive: 0.022,inactive: 0.125,inactive: 0.092,inactive: -0.07,inactive: 0.139,inactive: -0.085,inactive: 0.013,inactive: 0.104,inactive: 0.083
PIK3CG (UniProt P48736),inactive: -0.033,inactive: -0.044,inactive: 0.04,inactive: 0.009,inactive: -0.015,inactive: 0.046,inactive: 0.041,inactive: 0.001,,
PHKG2 (UniProt P15735),inactive: 0.107,inactive: -0.044,inactive: 0.268,inactive: 0.001,inactive: 0.033,inactive: -0.039,inactive: 0.056,inactive: -0.045,inactive: 0.192,inactive: 0.03
PHLDB1 (UniProt Q86UU1),inactive: -0.067,inactive: -0.1,inactive: -0.031,inactive: 0.023,inactive: 0.049,inactive: -0.041,inactive: -0.05,inactive: 0.009,inactive: -0.037,inactive: 0.017
PGLS (UniProt O95336),inactive: 0.177,inactive: 0.09,inactive: 0.061,inactive: 0.231,inactive: 0.016,inactive: 0.017,inactive: 0.019,inactive: 0.03,inactive: -0.087,inactive: -0.163
PHRF1 (UniProt Q9P1Y6),inactive: -0.059,inactive: 0.023,inactive: 0.088,inactive: -0.024,inactive: 0.016,inactive: 0.078,inactive: 0.017,inactive: 0.023,inactive: 0.006,inactive: 0.055
PI4KB (UniProt Q9UBF8),inactive: 0.005,inactive: -0.032,inactive: 0.228,inactive: 0.094,inactive: 0.056,inactive: 0.081,inactive: -0.069,inactive: -0.001,inactive: -0.097,inactive: 0
PHB2 (UniProt Q99623),inactive: -0.012,inactive: 0.017,inactive: -0.02,inactive: -0.019,inactive: -0.001,inactive: 0.002,inactive: -0.03,inactive: 0.009,inactive: 0.006,inactive: -0.006
PHF21A isoform 3 (UniProt Q96BD5),inactive: -0.156,inactive: -0.162,inactive: 0.029,inactive: -0.025,inactive: -0.054,inactive: 0.053,inactive: 0.016,inactive: 0.221,inactive: 0.114,inactive: -0.062
PITRM1 isoform 2 (UniProt Q5JRX3),inactive: 0.016,inactive: 0.04,inactive: 0.023,inactive: 0.008,inactive: -0.029,inactive: -0.012,active: 0.228,inactive: -0.016,inactive: -0.016,inactive: 0.044
PIGG (UniProt Q5H8A4),inactive: 0.034,inactive: 0.034,inactive: -0.015,inactive: -0.025,inactive: 0.006,inactive: 0.023,inactive: -0.121,inactive: -0.033,inactive: 0.003,inactive: 0.043
PHETA1 isoform 4 (UniProt Q8N4B1),inactive: -0.073,inactive: -0.007,,,,,,,,
PICALM (UniProt H0YEH1),inactive: -0.206,inactive: 0.126,inactive: 0.098,inactive: 0.006,inactive: 0,inactive: -0.038,inactive: 0.098,inactive: 0.049,inactive: -0.042,inactive: -0.036
PLEKHF1 (UniProt Q96S99),inactive: -0.001,inactive: -0.051,inactive: 0.058,inactive: -0.007,inactive: -0.033,inactive: -0.025,inactive: -0.009,inactive: -0.008,inactive: -0.001,inactive: 0.007
PIK3CA (UniProt P42336),inactive: -0.034,inactive: 0.116,inactive: 0.047,inactive: 0.027,inactive: -0.171,inactive: -0.009,inactive: -0.056,inactive: -0.018,inactive: 0.009,
